Measured values as given in paper PMC12079445.
Results are given in words; binding and its absence hold for the method and conditions named. In cells and extracts the contact can be indirect. Some entries that bind do so weakly or less than the wild type.

Amino acid sequences for entries named in this document (tags omitted).
UniProt O35343: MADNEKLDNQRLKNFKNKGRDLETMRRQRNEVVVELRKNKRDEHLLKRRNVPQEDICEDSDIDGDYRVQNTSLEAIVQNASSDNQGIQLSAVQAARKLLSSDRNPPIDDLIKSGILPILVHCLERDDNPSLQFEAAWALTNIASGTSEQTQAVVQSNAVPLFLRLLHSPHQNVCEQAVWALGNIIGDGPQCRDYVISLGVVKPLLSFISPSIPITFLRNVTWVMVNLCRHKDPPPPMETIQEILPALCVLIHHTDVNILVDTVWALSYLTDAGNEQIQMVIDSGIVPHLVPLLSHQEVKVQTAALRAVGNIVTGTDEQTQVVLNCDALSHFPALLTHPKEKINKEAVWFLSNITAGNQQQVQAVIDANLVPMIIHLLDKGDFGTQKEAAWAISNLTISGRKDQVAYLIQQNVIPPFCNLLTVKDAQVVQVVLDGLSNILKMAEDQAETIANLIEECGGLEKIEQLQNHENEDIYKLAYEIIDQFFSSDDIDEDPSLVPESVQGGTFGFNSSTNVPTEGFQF
UniProt Q04207: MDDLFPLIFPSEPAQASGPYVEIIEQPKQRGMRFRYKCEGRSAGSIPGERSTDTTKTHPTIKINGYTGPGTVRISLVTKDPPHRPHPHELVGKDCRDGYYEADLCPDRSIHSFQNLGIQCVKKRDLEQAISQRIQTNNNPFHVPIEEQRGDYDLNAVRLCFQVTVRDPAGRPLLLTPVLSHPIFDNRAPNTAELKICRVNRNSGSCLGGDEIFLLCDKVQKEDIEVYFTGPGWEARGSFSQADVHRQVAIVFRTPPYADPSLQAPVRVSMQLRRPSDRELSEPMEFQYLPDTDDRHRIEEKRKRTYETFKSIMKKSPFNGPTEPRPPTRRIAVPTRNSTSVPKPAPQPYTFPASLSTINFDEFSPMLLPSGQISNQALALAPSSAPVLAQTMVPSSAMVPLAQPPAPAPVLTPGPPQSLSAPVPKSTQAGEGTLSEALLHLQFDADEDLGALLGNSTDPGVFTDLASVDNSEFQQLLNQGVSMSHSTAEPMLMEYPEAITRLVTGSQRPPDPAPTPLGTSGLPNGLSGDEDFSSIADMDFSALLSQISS
UniProt Q08642: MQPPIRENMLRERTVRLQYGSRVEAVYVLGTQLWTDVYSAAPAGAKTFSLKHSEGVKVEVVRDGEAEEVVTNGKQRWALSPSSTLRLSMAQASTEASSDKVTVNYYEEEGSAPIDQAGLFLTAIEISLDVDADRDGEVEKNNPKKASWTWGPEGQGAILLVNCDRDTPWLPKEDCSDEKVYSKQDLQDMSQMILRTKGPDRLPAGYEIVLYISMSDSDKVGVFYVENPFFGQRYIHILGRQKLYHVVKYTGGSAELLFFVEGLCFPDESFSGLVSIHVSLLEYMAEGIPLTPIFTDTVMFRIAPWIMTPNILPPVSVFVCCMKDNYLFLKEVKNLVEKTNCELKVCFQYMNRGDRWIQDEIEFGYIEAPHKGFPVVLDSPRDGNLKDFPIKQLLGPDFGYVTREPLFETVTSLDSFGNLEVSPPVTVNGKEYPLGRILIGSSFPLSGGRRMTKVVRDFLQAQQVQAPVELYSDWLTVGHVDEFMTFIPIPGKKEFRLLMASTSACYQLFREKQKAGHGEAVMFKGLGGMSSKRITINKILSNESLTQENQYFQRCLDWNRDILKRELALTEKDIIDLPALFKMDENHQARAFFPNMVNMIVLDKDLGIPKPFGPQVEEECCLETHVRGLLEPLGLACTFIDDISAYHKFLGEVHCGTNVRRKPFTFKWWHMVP

Experiments:
[1] = biological target: importin α3 (mouse (endogenous in RAW 264.7)) (UniProt O35343); experiment: co-IP; lysates of R171A mutant and WT RAW 264.7 cells stimulated with PA-derived LPS (250 ng/mL, 1 h); immunoprecipitation with anti-importin α3 or control IgG; blot with anti-NF-κB p65
[2] = biological target: nuclear factor-κB (NF-κB) p65 (mouse (endogenous in BMDMs)) (UniProt Q04207); experiment: co-IP; lysates of BMDMs from WT and Pad2-/- mice stimulated with PA-derived LPS (250 ng/mL, 1 h); immunoprecipitation with anti-p65 antibody or control IgG; blot with anti-PAD2

Row | Substance | binding [1] | binding [2]
1 | nuclear factor-κB (NF-κB) p65 in WT RAW 264.7 cells (from UniProt Q04207 1-549) | binds | –
2 | peptidyl arginine deiminase 2 (PAD2) (from UniProt Q08642 1-673) (enzyme) | – | binds
